Values quoted from earlier work as cited in patent US20220154404A1, “Active Materials, Surfaces, Surface Treatments And Methods For Packaging Materials, Boxes, And Containers Using Photosensitizers For Pathogen Reduction” (Mi2 Holdings LLC, priority 2020, published 2022).
At least one structure is not confirmed: it was looked up by name or label, or the drawing left a doubt.

Settings: ideal solvent; first or only peak; cited from earlier work

Structure (SMILES): C=CC1=C(C)c2cc3[nH]c(cc4nc(cc5[nH]c(cc1n2)c(C)c5CCC(=O)O)C(CCC(=O)O)=C4C)c(C)c3C=C [Protoporphyrin IX]
- Epsilon: 160,000
